The values below come from PubChem BioAssay AID493014 (National Center for Advancing Translational Sciences (NCATS), 2011).

This is one part of the list. These are further read-outs of the screen, such as a control signal, another cell line or another target. No call is given for them. Compounds called inactive in the main read-out are mostly missing here. Potencies come from curve fits of mixed quality, noted in brackets.

This test in a line: qHTS Assay to Find Inhibitors of Chronic Active B-Cell Receptor Signaling. The following applies: ABC-DLBCL IkBa-CBG/CBR reporter, luminescence ratio (green luciferase fused to IkBa over red control in TMD8 lymphoma cells), 4 h. The method in brief: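 Concentration-response series (up to 46 uM) were applied to TMD8 dual-reporter cells for 4 h at 37C with doxycycline. Green/red ratio, after filter-overlap correction, defined %Activity; red signal alone was normalised to basal cells and zero luminescence.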
(qHTS replaces the single test concentration by a dilution series.)

[1] abbreviates: measured here: CBR red luminescence, cell number.
Setting [2] is: measured here: IkBa-CBG green luminescence.

For orientation: AC50 means the concentration giving half of the maximal activity seen. For `O=c1[nH]c(-c2ccc3c(c2)OCO3)nc2c1sc(=S)n2-c1ccccc1`, under setting [1], the half-maximal activity concentration (AC50) was 12.6 µM [falling, single point].

As to `Cc1cc(C)c(C(N)=O)c(Nc2cccc3ccccc23)n1`, the half-maximal activity concentration (AC50) under setting [1] is 3.26 µM [rising, partial curve, poor fit].

In the case of `O=C(NCCCc1ccccc1)c1cc([N+](=O)[O-])ccc1Cl`, under setting [1], the concentration at half-maximal activity (AC50) is 35.5 µM [falling, partial curve, poor fit].

As for `Cc1ccc(-n2c(SCC(=O)Nc3cc(C)on3)nc3c([nH]c4ccccc43)c2=O)cc1`, the concentration at half-maximal activity (AC50) under setting [1] is 11.6 µM [rising, partial curve, poor fit].

Take `COc1cc(C(=O)OC2CSCC2NC(=O)c2ccccc2)cc(OC)c1OC` (stereo not drawn): the half-maximal activity concentration (AC50) under setting [1] was 11.2 µM [falling, single point].

Turning to `Cc1cc(C)n(C(=O)CCCCCC(=O)n2nc(C)cc2C)n1`, the AC50 under setting [1] is 8.2 µM [rising, partial curve, poor fit].

Regarding `Oc1ccc(-c2csc(Nc3cccc4ccccc34)n2)cc1O`, the AC50 under setting [1] was 17.8 µM [falling, partial curve].

Regarding `CC1CCN(C(=O)CSc2nnc(NC(=O)Nc3ccccc3)s2)CC1`, the AC50 under setting [1] was 35.5 µM [rising, single point].

`CCn1c(SCC(=O)Nc2cc(C)on2)nc2c([nH]c3ccccc32)c1=O`: under setting [1], the concentration at half-maximal activity (AC50) was 20 µM [falling, partial curve, poor fit].

As for `Cc1ccccc1C(=O)N1CCN=C1SCc1ccc([N+](=O)[O-])cc1`, under setting [1], the AC50 was 35.5 µM [falling, single point].

Consider `Cc1ccccc1C(=O)Nc1nnc(SC(C)C)s1`, for which, under setting [1], the half-maximal activity concentration (AC50) is 12.6 µM [falling, partial curve, poor fit].

With `O=C(COC(=O)c1cccnc1Cl)NC(=O)c1ccc(OC(F)F)cc1`, the half-maximal activity concentration (AC50) under setting [1] was 13 µM [rising, single point].

For the compound `COc1cc(C(=O)Nc2cc(-c3ccccc3)[nH]n2)cc(OC)c1OC`, the concentration at half-maximal activity (AC50) under setting [1] was 22.4 µM [falling, single point].

For the compound `COC(=O)[C@H]1C[C@@H]1[C@H](NC(=O)c1cnccn1)c1ccccc1`, under setting [1], the AC50 was 11.6 µM [rising, partial curve, poor fit].

Turning to `CN1CCN(c2ccc(S(=O)(=O)N3CCOCC3)cc2NC(=O)COc2ccc(F)cc2Cl)CC1`, the concentration at half-maximal activity (AC50) under setting [1] is 15.8 µM [falling, single point].

For `NC(=O)c1ccc(NC(=O)CN2CCN(S(=O)(=O)c3ccc4ccccc4c3)CC2)cc1`, the AC50 is 29.1 µM [rising, single point] under setting [1] and 23.1 µM [falling, single point] under setting [2].

Regarding `O=C(CSc1nc2ccccc2c(=O)n1CCCN1CCOCC1)Nc1cccc(S(=O)(=O)N2CCCCCC2)c1`, the AC50 under setting [1] was 29.1 µM [falling, single point].

As for `Nc1nc(N)c(N=Nc2ccc(S(N)(=O)=O)cc2)c(=O)[nH]1`, the AC50 under setting [1] was 3.16 µM [falling, partial curve, poor fit].

On to `CC1CCN(CC(O)CN2c3ccccc3Sc3ccccc32)CC1` (stereo not drawn), for which the concentration at half-maximal activity (AC50) under setting [1] was 7.94 µM [falling, partial curve].

For `Cc1cc(N2CCC(C)CC2)nc(-n2nc(C)cc2C)n1`, the AC50 under setting [1] was 10.3 µM [rising, partial curve, poor fit].

With `CC(=O)c1ccc(N2CCCCC2)c(F)c1`, the half-maximal activity concentration (AC50) under setting [1] is 0.501 µM [rising, full curve, poor fit].

Take `COc1ccc(/C=C2/SC(=S)N(CCC(=O)N3CCN(C)CC3)C2=O)cc1`: the concentration at half-maximal activity (AC50) under setting [1] is 2.24 µM [falling, full curve, poor fit].

Turning to `O=C(O)CC(NC(=O)C1c2ccccc2Oc2ccccc21)c1ccc(Cl)cc1` (stereo not drawn), the half-maximal activity concentration (AC50) under setting [1] was 20.6 µM [falling, single point].

Take `COC(=O)c1cc(NC(=O)CC2NC3CCCCC3NC2=O)cc(C(=O)OC)c1` (stereo not drawn): under setting [1], the AC50 is 7.08 µM [falling, partial curve].

Take `O=C(CNC(=O)c1ccc(Br)cc1)c1ccccc1`: under setting [1], the AC50 is 12.6 µM [falling, single point].

Consider `Clc1ccc(/C=C/c2nc3ccccc3[nH]2)c(Cl)c1`, for which, under setting [1], the AC50 is 35.5 µM [falling, single point].

In the case of `COc1ccc(C(=O)NCCOc2cccc(Oc3ccccc3)c2)cc1OC`, the AC50 under setting [1] was 29.1 µM [falling, single point].

On to `Cc1cc(OCC(=O)O)c2ccccc2n1`, for which the AC50 under setting [1] is 31.6 µM [rising, single point].

As to `COCCCNc1nc2nonc2nc1N1CCN2CCCC2C1` (stereo not drawn), the AC50 under setting [1] was 35.5 µM [falling, single point].

As for `O=C(CNc1ccccc1Cl)Nc1cc(S(=O)(=O)N2CCOCC2)ccc1Cl`, the AC50 under setting [1] is 29.1 µM [falling, single point].

For `COc1ccc(N2CCN(S(=O)(=O)c3ccc4c(c3)NC(=O)C(C)S4)CC2)cc1` (stereo not drawn), the AC50 under setting [1] was 10 µM [falling, partial curve, poor fit].

With `CCOC(=O)C1CCCN(CCC(C)c2ccccc2)C1` (stereo not drawn), the AC50 under setting [1] was 6.51 µM [rising, single point].

With `COc1cc(NC(=O)CN2C(=O)C(=O)N(C3CCCC3)C2=O)cc(OC)c1`, the AC50 under setting [1] was 6.51 µM [rising, partial curve, poor fit].

Take `COc1cc(/C=C2/SC(=S)N(CC3CCCO3)C2=O)ccc1O` (stereo not drawn): the AC50 under setting [1] is 10.3 µM [rising, partial curve].

For `c1ccc(-c2cnc(-c3cccnc3)o2)cc1`, the AC50 runs as follows: under setting [1], 2 µM [rising, full curve, poor fit]; under setting [2], 14.1 µM [falling, partial curve, poor fit].

With `CCCOC(=O)c1ccc(NC(=O)c2ccccc2[N+](=O)[O-])cc1`, the AC50 under setting [1] was 2 µM [falling, partial curve, poor fit].

Regarding `Clc1cccc(-n2ncc3c(NCCCN4CCOCC4)ncnc32)c1`, the AC50 under setting [1] is 15.8 µM [falling, partial curve, poor fit] and the AC50 under setting [2] is 0.631 µM [rising, full curve, poor fit].

For the compound `O=C(Cc1ccccc1)NNS(=O)(=O)c1ccc(F)cc1`, under setting [1], the concentration at half-maximal activity (AC50) was 10 µM [falling, partial curve].

`CCCOc1ccc(C(=O)NC(=S)NCc2cccnc2)cc1`: the AC50 under setting [1] was 9.2 µM [falling, partial curve, poor fit].

For the compound `CCc1ccc(C2C(C#N)=C(N)SC(N)=C2C#N)s1`, the AC50 under setting [1] is 35.5 µM [falling, partial curve, poor fit].
